According to PubChem BioAssay (NCATS):
This list was built around the results that the source calls inconclusive (neither active nor inactive); the mix of calls is not that of the screen. Potencies beside an inconclusive call are fits to weak or partial responses and may not hold up. Activity calls are given as the source filed them. Calls follow the shape of the dose curve; as a rule, active = well fitted cell-killing curve with a large enough effect; inconclusive = small, poorly fitted or top-dose-only effect, or effect the other way; inactive = no such curve, though single readings can be large or run the other way.

Assays:
[1] = Quantitative High-Throughput drug screen in 47 multiple myeloma cell lines against the NCATS MIPE library collection: L363_DSMZ cell viability assay (AID 1918984); settings: L363 myeloma viability, CellTiter-Glo ATP luminescence, 48 h; viability (% of control): at 45.8 µM (top of the series); also: nearly all actives have a fitted effect of over 40% in size
Summary of the method: (§1)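 ATP-based luminescence (CellTiter-Glo, 5 min RT incubation) quantified surviving cells following two days' treatment with MIPE 4.0 agents at 37 °C, 5% CO2.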

[2] = Quantitative High-Throughput drug screen in 47 multiple myeloma cell lines against the NCATS MIPE library collection: OCIMY7_PLB cell viability assay (AID 1918987); settings: OCI-MY7 myeloma viability, CellTiter-Glo ATP, 48 h; viability (% of DMSO): at 45.8 µM (top of the series); also: nearly all actives have a fitted effect of over 65% in size
Summary of the method: as §1

[3] = Quantitative High-Throughput drug screen in 47 multiple myeloma cell lines against the NCATS MIPE library collection: OPM1_PLB cell viability assay (AID 1918989); also: nearly all actives have a fitted effect of over 40% in size;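 as to viability (% of control): 100% = DMSO-only wells and 0% = media-only wells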
Summary of the method: as §1

[4] = Quantitative High-Throughput drug screen in 47 multiple myeloma cell lines against the NCATS MIPE library collection: SKMM1_PLB cell viability assay (AID 1919863); settings: SKMM1 myeloma viability, CellTiter-Glo ATP, 48 h; viability: active compounds read low; also: nearly all actives have a fitted effect of over 35% in size
Summary of the method: as §1

[5] = Quantitative High-Throughput drug screen in 47 multiple myeloma cell lines against the NCATS MIPE library collection: U266_ATCC cell viability assay (AID 1919864); also: nearly all actives have a fitted effect of over 35% in size
Summary of the method: as §1

[6] = Quantitative High-Throughput drug screen in 47 multiple myeloma cell lines against the NCATS MIPE library collection: OCIMY5_PLB cell viability assay (AID 1918988); settings: OCI-MY5 myeloma viability, ATP luminescence, 48 h; viability, % of control: at 45.8 µM (top of the series); also: nearly all actives have a fitted effect of over 65% in size
Summary of the method: as §1

[7] = Quantitative High-Throughput drug screen in 47 multiple myeloma cell lines against the NCATS MIPE library collection: XG6_PLB cell viability assay (AID 1919865); settings: XG6 myeloma viability, CellTiter-Glo ATP luminescence, 48 h; viability (% of control): at 45.8 µM (top of the series); also: nearly all actives have a fitted effect of over 40% in size;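 as to viability (% of control): 100% = DMSO-only wells and 0% = media-only wells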
Summary of the method: as §1

[8] = Quantitative High-Throughput drug screen in 47 multiple myeloma cell lines against the NCATS MIPE library collection: XG1_PLB cell viability assay (AID 1919866); also: nearly all actives have a fitted effect of over 35% in size
Summary of the method: as §1

[9] = Quantitative High-Throughput drug screen in 47 multiple myeloma cell lines against the NCATS MIPE library collection: VP6_DJ cell viability assay (AID 1919867); settings: ATP luminescence, 48 h; viability (% of DMSO): at 45.8 µM (top of the series); also: nearly all actives have a fitted effect of over 40% in size;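 as to viability (% of DMSO): 100% = DMSO-only wells and 0% = wells with media alone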
Summary of the method: as §1
Potency is read from the fitted curve at half-maximal effect.

## COc1cc2c(cc1Cc1cccc(Cl)c1F)c(=O)c(C(=O)O)cn2[C@H](CO)C(C)C
[1]
  Potency: inconclusive: 37.2 µM [cytotoxic, single point]
[2]
  Potency: active: 18.7 µM
[3]
  Potency: inconclusive: 29.6 µM [cytotoxic, single point]
[4]
  Potency: inconclusive: 18.7 µM [cytotoxic, partial curve, poor fit]
[5]
  Potency: inconclusive: 16.6 µM [cytotoxic, partial curve, poor fit]

## O=C(O)c1nc(=O)[nH]c(=O)[nH]1
[1]
  Potency: inactive
[2]
  Potency: inactive
[6]
  Potency: inconclusive: 2.04 µM [cytotoxic, full curve, poor fit]
[4]
  Potency: inconclusive: 2.88 µM [cytotoxic, partial curve, poor fit]
[5]
  Potency: inactive
[7]
  Potency: inconclusive: 18.2 µM [rising, single point]
[8]
  Potency: inconclusive: 0.0091 µM [rising, full curve, poor fit]
[9]
  Potency: inconclusive: 0.162 µM [rising, full curve, poor fit]

## CC(=O)OCC(=O)[C@@]12N=C(C)O[C@H]1C[C@H]1[C@@H]3CCC4=CC(=O)C=C[C@]4(C)[C@@H]3[C@@H](O)C[C@@]12C
[1]
  Potency: inconclusive: 23.5 µM [cytotoxic, single point]
[2]
  Potency: inconclusive: 37.2 µM [cytotoxic, single point]
[6]
  Potency: inconclusive: 5.9 µM [cytotoxic, partial curve, poor fit]
[5]
  Potency: inconclusive: 0.0372 µM [rising, full curve, poor fit]
[7]
  Potency: inconclusive: 16.6 µM [cytotoxic, partial curve, poor fit]
[9]
  Potency: inconclusive: 1.05 µM [cytotoxic, full curve, poor fit]

## CNC(=O)[C@H](Cc1ccccc1)NC(=O)[C@H](CC(C)C)[C@H](CSc1cccs1)C(=O)NO
[1]
  Potency: inconclusive: 0.833 µM [cytotoxic, full curve, poor fit]
[2]
  Potency: active: 14.8 µM
[6]
  Potency: inconclusive: 23.5 µM [cytotoxic, single point]
[4]
  viability: inactive: 98.7%
[5]
  Potency: inconclusive: 37.2 µM [cytotoxic, single point]
[9]
  Potency: inconclusive: 16.6 µM [cytotoxic, partial curve]

## COc1cc2nccc(Oc3ccc(NC(=O)Nc4ccc(F)cc4F)c(F)c3)c2cc1OC
[1]
  Potency: inactive
[2]
  Potency: inconclusive: 0.0132 µM [cytotoxic, full curve, poor fit]
[3]
  Potency: inconclusive: 1.32 µM [cytotoxic, partial curve, poor fit]
[4]
  Potency: inconclusive: 20.9 µM [cytotoxic, single point]
[9]
  Potency: inconclusive: 0.0013 µM [rising, full curve, poor fit]

## N#C[C@H]1C[C@H]2C[C@@H]2N1C(=O)[C@@H](N)C12CC3CC(CC(O)(C3)C1)C2
[1]
  Potency: inactive
[2]
  Potency: inconclusive: 2.96 µM [cytotoxic, full curve, poor fit]
[6]
  Potency: inconclusive: 18.7 µM [cytotoxic, partial curve, poor fit]
[4]
  viability: inactive: 119%
[5]
  Potency: inactive
[7]
  Potency: inconclusive: 20.9 µM [cytotoxic, single point]
[8]
  Potency: inactive
[9]
  Potency: inconclusive: 5.9 µM [cytotoxic, partial curve, poor fit]

## CC(C)=CCCC(C)=CCCC(C)=CCCC(C)=CCCC(C)=CCCC(C)=CCCC(C)=CCCC(C)=CCCC(C)=CCO
[1]
  Potency: inactive
[2]
  Potency: inactive
[6]
  Potency: inconclusive: 5.9 µM [cytotoxic, full curve, poor fit]
[4]
  Potency: inconclusive: 5.26 µM [cytotoxic, full curve, poor fit]
[5]
  Potency: inconclusive: 16.6 µM [cytotoxic, partial curve, poor fit]
[7]
  Potency: inactive
[8]
  Potency: inactive
[9]
  Potency: inconclusive: 0.118 µM [rising, full curve, poor fit]

## CC#CCn1c(N2CCC[C@@H](N)C2)nc2c1c(=O)n(Cc1nc(C)c3ccccc3n1)c(=O)n2C
[1]
  Potency: inconclusive: 0.0033 µM [rising, full curve, poor fit]
[2]
  Potency: inconclusive: 33.2 µM [cytotoxic, partial curve, poor fit]
[3]
  Potency: inconclusive: 1.48 µM [cytotoxic, partial curve, poor fit]
[4]
  Potency: inconclusive: 20.9 µM [cytotoxic, single point]
[5]
  Potency: inconclusive: 20.9 µM [cytotoxic, partial curve, poor fit]
[8]
  Potency: inconclusive: 0.0012 µM [rising, full curve, poor fit]
[9]
  Potency: inconclusive: 0.0372 µM [rising, full curve, poor fit]

## NC(=O)[C@@H](CCC(F)(F)F)N(Cc1ccc(-c2ncon2)cc1F)S(=O)(=O)c1ccc(Cl)cc1
[1]
  Potency: inconclusive: 0.0047 µM [cytotoxic, full curve, poor fit]
[2]
  Potency: inconclusive: 23.5 µM [cytotoxic, partial curve, poor fit]
[6]
  Potency: active: 23.5 µM
[7]
  Potency: inconclusive: 3.32 µM [cytotoxic, full curve, poor fit]
[8]
  Potency: inconclusive: 18.7 µM [cytotoxic, partial curve, poor fit]
[9]
  Potency: inconclusive: 14.8 µM [cytotoxic, partial curve, poor fit]

## CCOC(=O)c1c(C)n(C)c2ccc(O)cc12
[1]
  Potency: inactive
[2]
  Potency: inconclusive: 20.9 µM [cytotoxic, partial curve, poor fit]
[4]
  viability: inactive: 121%
[5]
  Potency: inconclusive: 3.72 µM [cytotoxic, full curve, poor fit]
[7]
  Potency: inactive
[8]
  Potency: active: 6.62 µM
[9]
  Potency: inconclusive: 16.6 µM [cytotoxic, partial curve, poor fit]

## Clc1ccc(-c2nc3sccn3c2C=NOCc2ccc(Cl)c(Cl)c2)cc1
[1]
  Potency: inconclusive: 0.0148 µM [cytotoxic, full curve, poor fit]
[2]
  Potency: inconclusive: 0.0332 µM [cytotoxic, full curve, poor fit]
[6]
  Potency: inconclusive: 37.2 µM [cytotoxic, single point]
[5]
  Potency: inconclusive: 0.0093 µM [cytotoxic, full curve, poor fit]
[7]
  Potency: inconclusive: 2.09 µM [cytotoxic, partial curve, poor fit]
[8]
  Potency: inconclusive: 7.43 µM [cytotoxic, partial curve, poor fit]
[9]
  Potency: inactive

## C[C@]12CC[C@@H]3c4ccc(O)cc4CC[C@H]3[C@H]1C[C@@H](O)[C@H]2O
[1]
  Potency: inconclusive: 0.0059 µM [cytotoxic, full curve, poor fit]
[2]
  Potency: inconclusive: 20.9 µM [cytotoxic, partial curve, poor fit]
[6]
  Potency: active: 3.32 µM
[4]
  Potency: inconclusive: 18.7 µM [cytotoxic, partial curve, poor fit]
[5]
  Potency: active: 18.7 µM
[7]
  Potency: active: 5.9 µM
[9]
  Potency: inconclusive: 3.32 µM [cytotoxic, full curve, poor fit]

## OC[C@H]1O[C@@H](Oc2ccc(O)cc2)[C@H](O)[C@@H](O)[C@H]1O
[1]
  Potency: inactive
[2]
  Potency: inconclusive: 14.8 µM [cytotoxic, partial curve, poor fit]
[6]
  Potency: inconclusive: 0.0017 µM [rising, full curve, poor fit]
[4]
  Potency: inconclusive: 0.0015 µM [rising, full curve, poor fit]
[5]
  Potency: inconclusive: 0.418 µM [rising, full curve, poor fit]
[7]
  Potency: inconclusive: 13.2 µM [cytotoxic, partial curve, poor fit]
[8]
  Potency: inconclusive: 9.35 µM [cytotoxic, partial curve]

## CN(C)[C@@H](CCOc1cccc2ccccc12)c1ccccc1
[1]
  Potency: inconclusive: 9.35 µM [cytotoxic, single point]
[2]
  Potency: inconclusive: 1.05 µM [rising, partial curve]
[4]
  Potency: inconclusive: 16.6 µM [cytotoxic, partial curve, poor fit]
[5]
  Potency: inconclusive: 26.4 µM [cytotoxic, single point]
[7]
  Potency: inconclusive: 14.8 µM [cytotoxic, partial curve]

## Cc1cccc(Nc2ccncc2S(=O)(=O)NC(=O)NC(C)C)c1
[1]
  Potency: inconclusive: 0.0037 µM [cytotoxic, full curve, poor fit]
[2]
  Potency: inconclusive: 20.9 µM [cytotoxic, partial curve, poor fit]
[3]
  Potency: inactive
[4]
  Potency: inconclusive: 26.4 µM [cytotoxic, partial curve, poor fit]
[5]
  Potency: inactive
[8]
  Potency: inconclusive: 9.35 µM [cytotoxic, full curve, poor fit]

## Cc1cn([C@H]2C=C[C@@H](CO)O2)c(=O)[nH]c1=O
[1]
  Potency: inactive
[2]
  Potency: inconclusive: 15.2 µM [cytotoxic, partial curve, poor fit]
[3]
  Potency: inactive
[4]
  viability: inactive: 87.6%
[5]
  Potency: inactive
[9]
  Potency: inactive
